{"source": "PubChem BioAssay AID504744 (Drosophila RNAi Screening Center, 2011)", "aim": "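Find genes whose loss alters insulin-driven dAkt phosphorylation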 (primary screen)", "system": "Drosophila Kc167 cells", "knock-down reagent": "long dsRNA against Drosophila genes, 250 ng dsRNA per well of a 384-well plate", "duration": "3 days of knock-down, then overnight serum-free starvation before stimulation", "challenge": "bovine insulin at 387 nM for 10 minutes after 12 h without serum", "measurement": "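Per-well phospho-dAkt level from an in-cell fluorescent antibody stain, divided by a DNA-dye signal; log2 residuals turned into z-scores that take cell number into account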", "call rule": "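Under insulin, a gene counts as a hit if the average z-score of two replicates lies above 2.5 or below -2.5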", "note": "In all, the deposit lists about 23,000 reagents; this is a random part of those that have a named target and a result. In the full data, 98 (0.43%) got an active call. 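Only hit calls are given; the phospho-dAkt signals, z-scores and hit direction were not deposited.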 Reagents against one gene are numbered here. A plus sign joins genes that one reagent is predicted to hit."}
{"Gene": "CG31784", "dsRNA no.": 1, "outcome": "inactive"}
{"Gene": "Ccp84Ab", "dsRNA no.": 1, "outcome": "inactive"}
{"Gene": "CG15771", "dsRNA no.": 1, "outcome": "inactive"}
{"Gene": "tty (tweety)", "dsRNA no.": 1, "outcome": "inactive"}
{"Gene": "boca", "dsRNA no.": 1, "outcome": "inactive"}
{"Gene": "CG5390", "dsRNA no.": 1, "outcome": "inactive"}
{"Gene": "Cyp6g1 (Cytochrome P450 6g1)", "dsRNA no.": 1, "outcome": "inactive"}
{"Gene": "brv3 (brivido-3)", "dsRNA no.": 1, "outcome": "inactive"}
{"Gene": "CG17841", "dsRNA no.": 1, "outcome": "inactive"}
{"Gene": "Tsp42Eh (Tetraspanin 42Eh)", "dsRNA no.": 1, "outcome": "inactive"}
{"Gene": "Takl1 (Tak1-like 1)", "dsRNA no.": 1, "outcome": "inactive"}
{"Gene": "CG6083", "dsRNA no.": 1, "outcome": "inactive"}
{"Gene": "fz2 (frizzled 2)", "dsRNA no.": 1, "outcome": "inactive"}
{"Gene": "fz2 (frizzled 2)", "dsRNA no.": 2, "outcome": "inactive"}
{"Gene": "fz2 (frizzled 2)", "dsRNA no.": 3, "outcome": "inactive"}
{"Gene": "CG14778", "dsRNA no.": 1, "outcome": "inactive"}
{"Gene": "SiaT (Sialyltransferase)", "dsRNA no.": 1, "outcome": "inactive"}
{"Gene": "Rgk1 (retired record)", "dsRNA no.": 1, "outcome": "inactive"}
{"Gene": "Rgk1 (retired record)", "dsRNA no.": 2, "outcome": "inactive"}
{"Gene": "CG4080", "dsRNA no.": 1, "outcome": "inactive"}
{"Gene": "CG18233", "dsRNA no.": 1, "outcome": "inactive"}
{"Gene": "CG43394", "dsRNA no.": 1, "outcome": "inactive"}
{"Gene": "CG5357 (retired record)", "dsRNA no.": 1, "outcome": "inactive"}
{"Gene": "CG15528", "dsRNA no.": 1, "outcome": "inactive"}
{"Gene": "VGAT (Vesicular GABA Transporter)", "dsRNA no.": 1, "outcome": "inactive"}
{"Gene": "Try29F (Trypsin 29F)", "dsRNA no.": 1, "outcome": "inactive"}
{"Gene": "Usp12-46 (Ubiquitin-specific protease 12/46)", "dsRNA no.": 1, "outcome": "inactive"}
{"Gene": "CG12609", "dsRNA no.": 1, "outcome": "inactive"}
{"Gene": "Rsph3 (Radial spoke head protein 3)", "dsRNA no.": 1, "outcome": "inactive"}
{"Gene": "Rsph3 (Radial spoke head protein 3)", "dsRNA no.": 2, "outcome": "inactive"}
{"Gene": "CG11044", "dsRNA no.": 1, "outcome": "inactive"}
{"Gene": "CG12984", "dsRNA no.": 1, "outcome": "inactive"}
{"Gene": "pita", "dsRNA no.": 1, "outcome": "inactive"}
{"Gene": "pita", "dsRNA no.": 2, "outcome": "inactive"}
{"Gene": "COX7AL (Cytochrome c oxidase subunit 7A-like)", "dsRNA no.": 1, "outcome": "inactive"}
{"Gene": "S-Lap2 (Sperm-Leucylaminopeptidase 2)", "dsRNA no.": 1, "outcome": "inactive"}
{"Gene": "disp (dispatched)", "dsRNA no.": 1, "outcome": "inactive"}
{"Gene": "egl (egalitarian)", "dsRNA no.": 1, "outcome": "inactive"}
{"Gene": "Usp30 (Ubiquitin specific protease 30)", "dsRNA no.": 1, "outcome": "inactive"}
{"Gene": "Vti1a (Vesicle transport through interaction with t-SNAREs 1a)", "dsRNA no.": 1, "outcome": "inactive"}
{"Gene": "Hug (Hugin)", "dsRNA no.": 1, "outcome": "inactive"}
{"Gene": "Tbcc (Tubulin-binding cofactor C)", "dsRNA no.": 1, "outcome": "inactive"}
{"Gene": "eIF3g1 (eukaryotic translation initiation factor 3 subunit g1)", "dsRNA no.": 1, "outcome": "inactive"}
{"Gene": "CG5321", "dsRNA no.": 1, "outcome": "inactive"}
{"Gene": "CG5321", "dsRNA no.": 2, "outcome": "inactive"}
{"Gene": "CG7530", "dsRNA no.": 1, "outcome": "inactive"}
{"Gene": "CG14294", "dsRNA no.": 1, "outcome": "inactive"}
{"Gene": "l(3)psg2 (lethal (3) persistent salivary gland 2)", "dsRNA no.": 1, "outcome": "inactive"}
{"Gene": "Lipt2 (Lipoyl(octanoyl) transferase 2)", "dsRNA no.": 1, "outcome": "inactive"}
{"Gene": "Lipt2 (Lipoyl(octanoyl) transferase 2)", "dsRNA no.": 2, "outcome": "inactive"}
{"Gene": "CG10324", "dsRNA no.": 1, "outcome": "inactive"}
{"Gene": "gcm (glial cells missing)", "dsRNA no.": 1, "outcome": "inactive"}
{"Gene": "Tpi (Triose phosphate isomerase)", "dsRNA no.": 1, "outcome": "inactive"}
{"Gene": "CG42237", "dsRNA no.": 1, "outcome": "inactive"}
{"Gene": "CG7335", "dsRNA no.": 1, "outcome": "inactive"}
{"Gene": "Uhg2 + snoRNA:Me18S-G1620 + snoRNA:U14:30Ea", "dsRNA no.": 1, "outcome": "inactive"}
{"Gene": "insc (inscuteable)", "dsRNA no.": 1, "outcome": "inactive"}

Targets listed so far whose gene name begins with E or e (2):
{"Gene": "egl (egalitarian)", "dsRNA no.": 1, "outcome": "inactive"}
{"Gene": "eIF3g1 (eukaryotic translation initiation factor 3 subunit g1)", "dsRNA no.": 1, "outcome": "inactive"}
